Drawing on PMC12441059, this text covers binding for one substance.

The target of this experiment is EGFR (endogenous, CaOV3 cells) (human (endogenous in CaOV3)) (UniProt P00533). The experiment can be described thus: co-IP; whole cell lysates of CaOV3 cells, in the presence of both ligands (EGF + VEGF-A); anti-EGFR monoclonal antibodies and BsAb precipitated with Protein A and G beads; Western blot for EGFR and VEGFR2. In general terms: Immunoblotting shows a protein as a band on a membrane.

Results are given in words; binding and its absence hold for the method and conditions named. In cells and extracts the contact can be indirect.

As for “VEGFR2 (endogenous, CaOV3 cells) (from UniProt P35968 20-1356) (receptor)”, the binding result was “no binding”.
